Test results reported in US20240342175A1, “Compositions and Methods for Treating Spinal Cord Injury and Synaptic Dysfunction” (priority 2021, published 2024).
For at least one compound, name, drawing or mass did not settle the structure.

What was measured:
Assay type in all cases: in vivo
Conditions in all cases: first experiment, belumosudil 100 mg/kg/day oral (BID), 15 days
[1] = tested on: Fmr1 knock-out mice; assay: Self-grooming / stereotypy in Fmr1 knock-out mice
Experimental: (§1) Fmr1 knock-out mice (n=10) were orally administered 10 mg/kg/day or 100 mg/kg/day belumosudil or vehicle (BID) for 15 days. Control groups included wild type mice and knock out mice with vehicle. Mice treated with 100 mg/kg belumosudil ameliorated the following behavioral phenotypes: open field/hyperactivity, self-grooming/stereotypy, hyponeophagia/anxiety, nesting/test of daily living, 3-chamber social novelty/sociability; resident intruder and fear conditioning.
(§2) The experiment was repeated where knock out mice received belumosudil at 20 mg/kg/day, 60 mg/kg/day and 100 mg/kg/day (BID) for 15 days. One group of knock out mice received 10 mg/kg/day belumosudil in combination with 10 mg/kg/day minocycline for 15 days. Control groups included wild type mice and knock out mice with vehicle. The results are set forth below, where X indicates failure to ameliorate the phenotype and Y reversed the phenotype: […]

[2] = tested on: Fmr1 knock-out mice; assay: Novel object recognition / cognition in Fmr1 knock-out mice
Experimental: as §1, §2

[3] = tested on: Fmr1 knock-out mice; assay: Nesting / test of daily living in Fmr1 knock-out mice
Experimental: as §1, §2

[4] = tested on: Fmr1 knock-out mice; assay: 3-chamber social novelty / sociability in Fmr1 knock-out mice
Experimental: as §1, §2

[5] = tested on: Fmr1 knock-out mice; assay: Fear conditioning in Fmr1 knock-out mice
Experimental: as §1, §2

[6] = tested on: Fmr1 knock-out mice; assay: Open field / hyperactivity in Fmr1 knock-out mice
Experimental: as §1, §2

[7] = tested on: Fmr1 knock-out mice; assay: Hyponeophagia / anxiety in Fmr1 knock-out mice
Experimental: as §1, §2

[8] = tested on: Fmr1 knock-out mice; assay: Resident intruder in Fmr1 knock-out mice
Experimental: as §1, §2

## CC(C)NC(=O)COc1cccc(-c2nc(Nc3ccc4[nH]ncc4c3)c3ccccc3n2)c1 [belumosudil]
[1]
  self-grooming/stereotypy behavioral phenotype: ameliorated
[2]
  novel object recognition/cognition test: did not normalize behavior
[3]
  nesting/test of daily living behavioral phenotype: ameliorated
[4]
  3-chamber social novelty/sociability behavioral phenotype: ameliorated
[5]
  fear conditioning behavioral phenotype: ameliorated
[6]
  open field/hyperactivity behavioral phenotype: ameliorated
[7]
  hyponeophagia/anxiety behavioral phenotype: ameliorated
[8]
  resident intruder behavioral phenotype: ameliorated
